Library screen at single concentrations

Protein sequences, listed by entry. Tags and fused reporters are not part of them. Residues count along the entry.
UniProt I6X8D2, whole entry: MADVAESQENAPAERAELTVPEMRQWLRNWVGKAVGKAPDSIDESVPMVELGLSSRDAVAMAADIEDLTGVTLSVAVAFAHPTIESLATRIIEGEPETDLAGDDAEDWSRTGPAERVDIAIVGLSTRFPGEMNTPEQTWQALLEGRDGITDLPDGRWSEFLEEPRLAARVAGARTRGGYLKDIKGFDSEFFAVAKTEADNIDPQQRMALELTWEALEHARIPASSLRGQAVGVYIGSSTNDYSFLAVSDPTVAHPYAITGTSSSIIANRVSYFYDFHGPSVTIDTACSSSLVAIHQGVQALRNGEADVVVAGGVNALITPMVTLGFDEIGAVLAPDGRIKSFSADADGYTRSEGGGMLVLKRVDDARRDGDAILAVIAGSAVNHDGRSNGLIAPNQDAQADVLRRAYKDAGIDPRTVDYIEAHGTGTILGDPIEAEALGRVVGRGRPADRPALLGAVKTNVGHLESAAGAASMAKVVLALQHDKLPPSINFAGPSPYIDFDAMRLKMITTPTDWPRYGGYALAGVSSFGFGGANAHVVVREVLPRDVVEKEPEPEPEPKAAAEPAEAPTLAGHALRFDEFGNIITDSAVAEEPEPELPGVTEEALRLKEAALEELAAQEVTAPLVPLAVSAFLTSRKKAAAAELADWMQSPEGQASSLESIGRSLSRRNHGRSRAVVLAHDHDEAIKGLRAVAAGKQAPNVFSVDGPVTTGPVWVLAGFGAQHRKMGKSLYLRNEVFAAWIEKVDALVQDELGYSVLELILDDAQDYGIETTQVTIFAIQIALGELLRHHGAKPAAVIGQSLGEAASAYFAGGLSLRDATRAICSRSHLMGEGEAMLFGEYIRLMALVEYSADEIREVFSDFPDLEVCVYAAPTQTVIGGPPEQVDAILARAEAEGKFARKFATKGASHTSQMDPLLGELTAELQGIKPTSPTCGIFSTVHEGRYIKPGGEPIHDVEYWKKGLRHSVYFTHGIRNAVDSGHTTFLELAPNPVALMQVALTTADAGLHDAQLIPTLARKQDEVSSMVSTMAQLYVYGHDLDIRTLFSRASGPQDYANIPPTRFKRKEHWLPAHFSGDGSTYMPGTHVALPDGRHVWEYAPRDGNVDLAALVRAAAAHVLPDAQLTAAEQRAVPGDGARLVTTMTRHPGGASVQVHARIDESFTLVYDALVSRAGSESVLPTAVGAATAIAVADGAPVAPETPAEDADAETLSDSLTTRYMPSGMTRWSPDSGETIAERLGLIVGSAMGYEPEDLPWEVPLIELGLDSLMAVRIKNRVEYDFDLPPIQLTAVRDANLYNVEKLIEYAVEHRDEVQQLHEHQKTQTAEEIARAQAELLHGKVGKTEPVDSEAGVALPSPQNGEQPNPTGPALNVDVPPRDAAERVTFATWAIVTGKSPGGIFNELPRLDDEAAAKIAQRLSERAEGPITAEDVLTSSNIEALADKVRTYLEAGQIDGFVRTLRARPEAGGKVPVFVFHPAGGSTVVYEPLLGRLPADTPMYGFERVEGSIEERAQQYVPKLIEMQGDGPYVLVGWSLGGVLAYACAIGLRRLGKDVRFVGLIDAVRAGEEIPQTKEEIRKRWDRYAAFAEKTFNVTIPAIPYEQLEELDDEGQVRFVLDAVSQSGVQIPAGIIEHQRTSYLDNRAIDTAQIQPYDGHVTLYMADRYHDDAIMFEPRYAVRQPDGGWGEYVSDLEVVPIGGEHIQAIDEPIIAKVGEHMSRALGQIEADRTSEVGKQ
UniProt Q8IDJ8, 1-583: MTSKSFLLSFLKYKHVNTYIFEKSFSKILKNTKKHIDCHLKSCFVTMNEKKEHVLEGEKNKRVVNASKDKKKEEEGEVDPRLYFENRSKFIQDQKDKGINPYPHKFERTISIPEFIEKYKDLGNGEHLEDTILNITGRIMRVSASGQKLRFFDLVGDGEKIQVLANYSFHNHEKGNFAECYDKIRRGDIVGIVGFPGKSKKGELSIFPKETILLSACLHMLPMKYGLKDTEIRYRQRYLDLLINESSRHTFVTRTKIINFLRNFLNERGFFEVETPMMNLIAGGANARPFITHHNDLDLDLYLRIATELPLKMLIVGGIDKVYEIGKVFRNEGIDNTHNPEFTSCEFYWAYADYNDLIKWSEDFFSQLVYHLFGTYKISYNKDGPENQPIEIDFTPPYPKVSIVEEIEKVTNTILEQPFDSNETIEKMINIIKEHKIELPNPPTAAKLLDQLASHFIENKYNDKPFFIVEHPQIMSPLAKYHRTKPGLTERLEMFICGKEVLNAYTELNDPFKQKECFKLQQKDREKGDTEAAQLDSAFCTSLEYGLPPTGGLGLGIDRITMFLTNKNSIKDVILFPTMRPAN
UniProt P9WNZ1, whole entry: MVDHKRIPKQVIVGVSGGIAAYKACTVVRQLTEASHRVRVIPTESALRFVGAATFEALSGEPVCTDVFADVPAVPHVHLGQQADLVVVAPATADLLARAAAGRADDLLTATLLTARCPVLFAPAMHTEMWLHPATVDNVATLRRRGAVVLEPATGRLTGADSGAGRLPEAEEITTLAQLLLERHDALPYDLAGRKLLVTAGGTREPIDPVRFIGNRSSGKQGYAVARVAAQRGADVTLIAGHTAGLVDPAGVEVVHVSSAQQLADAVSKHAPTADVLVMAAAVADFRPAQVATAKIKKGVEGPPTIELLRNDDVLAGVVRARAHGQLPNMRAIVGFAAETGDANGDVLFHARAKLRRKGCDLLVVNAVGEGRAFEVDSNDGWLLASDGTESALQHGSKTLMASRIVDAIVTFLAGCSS

Toxoplasma: 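Assay of Toxoplasma gondii numbers, read through their beta-galactosidase reporter with a colour substrate. Compounds at 10 µM. Higher reads as fewer parasites (inferred from which compounds were picked for retests). About 67,000 compounds were tested under these conditions; 0.38% (about 260) showed 50% or more at least once.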
Pks13 thioesterase: 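Polyketide synthase Pks13, Mycobacterium tuberculosis (UniProt I6X8D2). Enzyme assay of the thioesterase domain of polyketide synthase 13; the read-out is not stated. Compounds at 30 µM. Higher reads as stronger inhibition (inferred from which compounds were picked for retests). About 67,000 compounds were tested under these conditions; 0.46% (about 300) showed 50% or more at least once.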
PfKRS1: 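Enzyme assay of the cytosolic lysyl-tRNA synthetase in 384-well plates, read by luminescence. Target: Lysine-tRNA ligase, Plasmodium falciparum 3D7 (UniProt Q8IDJ8). Compounds at 30 µM. Higher reads as stronger inhibition, judged from the few compounds that gave an IC50. About 69,000 compounds were tested under these conditions; 0.071% (about 49) showed 50% or more at least once.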
CoaBC: 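Enzyme assay of CoaBC with a phosphate dye (Biomol Green) read at 650 nm. Target: Coenzyme A biosynthesis protein CoaBC, Mycobacterium tuberculosis (UniProt P9WNZ1). Compounds at 30 µM. Direction is inferred from only a few compounds that gave an IC50; most scored high, so higher reads as stronger inhibition. Most strong results did not repeat in a second test. Size under these conditions: about 67,000 compounds, about 40 of them at 50% or above in at least one test.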

The filed quantity is “Percent Effect” (%).
How 0% and 100% were set is not recorded. Most values in the screen are low, and negative values occur.
This is an unselected part of the compounds tested.
A dash means the value is not listed here; it may have been measured.

- CCCc1ccc2oc(C(=O)N3CCCN(C)CC3)c(C)c2c1 | Toxoplasma: 15.97%; Pks13 thioesterase: -12.79%; PfKRS1: 3.841%; CoaBC: -8.014%
- Brc1ccc(CNCc2nnc3n2CCC3)s1 | Pks13 thioesterase: 1.45%; PfKRS1: -3.118%; CoaBC: 6.098%
- Cc1ccc(S(=O)(=O)N2CCn3nc(C)nc3C2)c(Cl)c1 | Toxoplasma: -3.472%; Pks13 thioesterase: -18.2%; PfKRS1: 4.504%; CoaBC: 0.813%
- CC(=O)c1cccc(CN2CCCC23CCN(c2ccccn2)CC3)c1 | Toxoplasma: -3.3%; Pks13 thioesterase: -33.32%; PfKRS1: -0.7576%; CoaBC: -0.5109%
- CN(Cc1nc(-c2ccco2)no1)C1CCCN(c2cccnn2)C1 (stereo not drawn) | Pks13 thioesterase: -15.7%; PfKRS1: 3.543%; CoaBC: 4.627%
- CCOCc1cnc2n1CCN(C(=O)C1=CCCC1)C2C (stereo not drawn) | Toxoplasma: -14.57%; Pks13 thioesterase: 6.6%; PfKRS1: 1.707%; CoaBC: -3.258%
- CCCS(=O)(=O)N1C[C@@H]2CN(Cc3cccs3)CCO[C@@H]2C1 | Pks13 thioesterase: -31.25%; PfKRS1: 3.775%
- [H][C@]12CN(C(=O)N(C)C)CCN1C[C@H](c1ccccc1)[C@H]2C(=O)OCC | Toxoplasma: -16.87%
- COc1ccc(C(=O)N2Cc3cc(C)ccc3OCC2CN(C)C)cc1.Cl (stereo not drawn) | Toxoplasma: 23.42%
- CSCCC(=O)N1CCCC(c2nccn2Cc2ccncc2)C1 (stereo not drawn) | Toxoplasma: 15.82%; Pks13 thioesterase: -21.17%; PfKRS1: 4.682%; CoaBC: 7.636%
- CC(C)c1cc(C(=O)NCCN2CCOCC2)nc(N2CCCC2)n1 | Toxoplasma: 8.687%; Pks13 thioesterase: -3.286%; PfKRS1: 3.908%; CoaBC: 1.848%
- [H][C@]12CC[C@@]3(N=C(CC)N(C)C3=O)[C@@]1([H])CN(C(=O)NC(C)C)C2 | Toxoplasma: 7.137%
- CSc1ccc(-c2noc(CN(CC(C)C)CC(C)C)n2)cc1 | Toxoplasma: -3.446%; Pks13 thioesterase: -15.73%; PfKRS1: -0.5051%; CoaBC: -39.58%
- CC(C)c1cccc(-n2cc(O)c(C(N)=O)n2)c1 | Toxoplasma: 0.05294%; Pks13 thioesterase: -39.35%; PfKRS1: 1.938%; CoaBC: 3.676%
- CN1CCC2(COCCN(Cc3ccc4c(c3)OCO4)C2)C1.O=C(O)C(F)(F)F.O=C(O)C(F)(F)F (stereo not drawn) | Toxoplasma: -4.735%
- CNc1[nH]nc(N)c1C(=O)Nc1ccccc1 | Toxoplasma: 6.991%; Pks13 thioesterase: 11.16%; PfKRS1: -0.2596%; CoaBC: 0.8861%
- COc1cccc(COCC(=O)N2CCCC(c3nncn3C)C2)c1 (stereo not drawn) | Toxoplasma: 11.32%; Pks13 thioesterase: -10.86%; PfKRS1: 5.057%; CoaBC: 3.915%
- Cc1oc(C(=O)O)cc1S(=O)(=O)Nc1cccc(-c2nccs2)c1 | Toxoplasma: -19.76%; Pks13 thioesterase: -11.13%; PfKRS1: 6.965%; CoaBC: 4.781%
- COCC(=O)N1CCN(Cc2cccnc2)c2ncccc2C1.O=C(O)C(F)(F)F.O=C(O)C(F)(F)F | Toxoplasma: 7.298%

The first 2 entries again:

| Compound | Toxoplasma | Pks13 thioesterase | PfKRS1 | CoaBC |
|---|---|---|---|---|
| `CCCc1ccc2oc(C(=O)N3CCCN(C)CC3)c(C)c2c1` | 15.97 | -12.79 | 3.841 | -8.014 |
| `Brc1ccc(CNCc2nnc3n2CCC3)s1` | - | 1.45 | -3.118 | 6.098 |

Data taken from ChEMBL document CHEMBL3988442, “University of Dundee, Small-Polar-MMV Screening Library” (2021).